Reference: patent publication US7462347B2, “Fluorescent membrane intercalating probes” (priority 2000, dated 2008)
Several values for one entry are separate records, joined by “and”; a condition that tells them apart may be missing. Equal values may be shown once.

Tests used:
[1] = test system: YAC-1 cells; assay: Signal:noise estimation for in vitro imaging of labeled tumor cells; format: cell-based; conditions: cells labeled at MTC, fluorescence microscope 100×, compared with PKH26
[2] = test system: YAC-1 cells; assay: In vivo tracking and imaging of labeled tumor cells through the skin; design: species or system nude mice; conditions: 10^6 labeled YAC-1 cells injected subcutaneously, CCD camera
[3] = test system: YAC-1 murine lymphoma cells; assay: S/N, retention and spectral crossover of labeled cells by flow cytometry; format: cell-based; conditions: for MFI, FL5 / Percent spectral overlap, FL5: FACS Vantage SE only, 647 excitation; for S/N at T = 0 / % Retention at T = 22 hours: cells labeled at MTC; for S/N at T = 0: flow cytometry; for % Retention at T = 22 hours: growth-corrected, co-culture with unlabeled cells
[4] = FACS Vantage SE, 488 nm excitation, 610/20 BP
[5] = FACS Vantage SE, 647 nm excitation, 740 LP
[6] = FACS Calibur, 488 nm excitation 661/16 BP
[7] = FACS Calibur, 488 nm excitation, 585/42 BP

SMILES | normalized S/N (standardized 50 msec acquisition time) [1] | fluorescence of labeled cells detected through the skin [2] | MFI, FL5 ([3]; 740 LP) | Percent spectral overlap, FL5 ([3]; 740 LP) | MFI, FL3 [3, 4] | Percent spectral overlap, FL3 [3, 4] | MFI, FL4 (primary channel) [3, 5] | S/N at T = 0 [3] | % Retention at T = 22 hours [3] | MFI, FL3 [3, 6] | Percent spectral overlap, FL3 [3, 6] | MFI, FL2 [3, 7] | Percent spectral overlap, FL2 [3, 7] | MFI, FL4 (primary channel) ([3]; FACS Calibur, 635 nm excitation, 661/16 BP)
CCCCCCCCCCCCCCCCCCCCCC[N+]1=C(/C=C/C=C/C=C/C=C2/N(CCCCCCCCCCCCCC)c3ccc4ccccc4c3C2(C)C)C(C)(C)c2c1ccc1ccccc21.[I-] [Compound 15] | increased | can be detected through the skin of nude mice | – | – | – | – | – | – | – | – | – | – | – | –
CCCCCCCCCCCCCCCCCCCCCC[N+]1=C(/C=C/C=C/C=C2/N(CCCCCCCCCCCCCC)c3ccc4ccccc4c3C2(C)C)C(C)(C)c2ccccc21 [Compound 25] | – | – | (MFI = 4484) | 62.4% | (MFI = 0) | 0 | (MFI = 7180) | 1031 | 91% | – | – | – | – | –
CCCCCCCCCCCCCCCCCCCCCC[N+]1=C(/C=C/C=C/C=C2/N(CCCCCCCCCCCCCC)c3ccccc3C2(C)C)C(C)(C)c2ccccc21.[I-] [Compound 8] | – | – | – | – | – | – | – | 3948 | 98% | MFI = (−389) | 1.6% | (MFI = 31) | 0.001% | (MFI = 24430)
CCCCCCCCCCCCCCCCCCCCCC[N+]1=C(/C=C/C=C2/N(CCCCCCCCCCCCCC)c3ccccc3C2(C)C)C(C)(C)c2ccccc21.[I-] [PKH26, reference compound] | – | – | – | – | – | – | – | 265 and 357 | 106% | – | – | – | – | –
CCCCCCCCCCCCCCCCCCCCCC[N+]1=C(/C=C/C=C/C=C2/N(CCCCCCCCCCCCCC)c3ccc4ccccc4c3C2(C)C)C(C)(C)c2c1ccc1ccccc21.[I-] [Compound 13] | increased | can be detected through the skin of nude mice | (MFI = 615) | 7.6% | – | 0 | (MFI = 8087) | 1152 | 90% | – | – | – | – | –
